Article PMC5016662

Target: T1, human cathepsin G (human) (UniProt P08311)
T1 sequence: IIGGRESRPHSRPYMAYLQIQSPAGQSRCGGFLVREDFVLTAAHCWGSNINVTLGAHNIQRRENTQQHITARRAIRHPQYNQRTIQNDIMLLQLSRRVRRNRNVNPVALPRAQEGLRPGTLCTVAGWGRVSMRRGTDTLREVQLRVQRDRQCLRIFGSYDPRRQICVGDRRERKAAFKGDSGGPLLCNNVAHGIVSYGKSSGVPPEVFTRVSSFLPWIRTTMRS
Assay: enzyme inhibition screen (fluorogenic substrate); 300 nM inhibitor incubated with each protease for 15 min at 37 °C before the fluorogenic substrate was added; buffer and substrate for each protease as in Table 4; in triplicate; both purified

For “recombinant Fasciola hepatica Kunitz-type protease inhibitor FhKT1”, the binding was “no binding (tested: 300 nM)”.

No constants are given. Whether binding was seen depends on the method and setting.
